Measurements published in the supplement of paper PMC12889115.
Some of the results follow. Values are raw readings; no control value is given beside them.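 Primary screen: polymyxin B was added at a level permeabilizing Salmonella outer membranes while sparing inner membranes. DMSO wells, both with and without polymyxin B, established maximum growth. Plate-to-plate variation meant each plate was ranked on its own, and the lowest-OD600 compounds were selected as hits.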

Test system: Salmonella enterica serovar Typhimurium SL1344
Test: bacterial growth OD600 after 18 h with compound and polymyxin B; higher = more bacterial growth (less inhibition)
Conditions: 50 µM, Mueller-Hinton broth

SMILES	bacterial growth OD600 (polymyxin B 1 µg/mL)	bacterial growth OD600 (polymyxin B 0.75 µg/mL)
Cc1nc2ccccc2n1Cc1cc(C(=O)NCCCO)no1	0.967	–
COc1cccc(CC(C2CCN(C(=O)c3ccccc3C)CC2)N(C)C(=O)c2ccn(C)n2)c1 (configuration not stated)	–	0.946
COC(=O)CCCC(=O)N1CCC2(CCCN(Cc3ccccc3F)C2=O)C1 (configuration not stated)	0.973	–
CSc1ncccc1C(=O)N1CCc2onc(-c3ccccc3F)c2C1	–	0.468
CCCCNC(=O)N1CCC(C2CCN(Cc3cccnc3)CC2)C1 (configuration not stated)	–	0.97
O=C(/C=C/c1cccc(F)c1)N1CCCC(c2nc(-c3cccnc3)ncc2-c2ccccc2F)C1 (configuration not stated)	–	0.556
CN(CC1CCCCO1)C(=O)c1coc(COc2ccc(F)cc2)n1 (configuration not stated)	0.954	–
COc1cccc(-c2cc(CC3(O)CCN(C4Cc5ccccc5C4)CC3)on2)c1	–	0.521
Cc1nc(CN(C)C(=O)c2cc(Cn3c(C)nc4ccccc43)on2)cs1	0.975	–
COc1ccccc1N1CCN(C(=O)Cn2nnnc2CN2CCOCC2)C(C)C1 (configuration not stated)	–	0.786
Cc1cccc(-c2cnc(C)nc2C2CCCN(C(=O)c3ccc(C)c(C)c3)C2)c1 (configuration not stated)	–	0.98
COc1cccc(N2C(=O)CN(C(=O)c3csc4c3CCCC4)CC2C)c1 (configuration not stated)	–	0.719
COc1ccc(NC2CCCN(C(=O)CCc3cccc(Cl)c3)C2)cc1 (configuration not stated)	0.206	–
O=C(c1csc2nc(-c3ccc(C(F)(F)F)cc3)cn12)N1CCSCC1	0.007	–
COc1cccc(CN2CCC(C(Cc3ccccc3Cl)N(C)C(=O)c3ccco3)CC2)c1O (configuration not stated)	–	0.575
CCc1n[nH]c(C(=O)N2CCCC(CNS(=O)(=O)c3ccc(OC)cc3)C2)c1C (configuration not stated)	0.883	–

SMILES	bacterial growth OD600 (polymyxin B 1 µg/mL)	bacterial growth OD600 (polymyxin B 0.75 µg/mL)
Cc1ccc2c(c1)CN(Cc1cccc(OCCO)c1)CC(c1ccsc1)O2 (configuration not stated)	–	0.084
O=C(c1csc2nc(-c3ccc(C(F)(F)F)cc3)cn12)N1CCCC(CO)C1 (configuration not stated)	0.807	–
Cn1cc(CN2CCC(Oc3ccc(C(=O)NC4CCCC4)cc3Cl)CC2)cn1	1.12	–
COc1ccc2c(c1)SC(c1ccc(F)c(F)c1)CCN2CCCC(F)(F)F (configuration not stated)	–	0
Cc1cccc(C(=O)N2CCCC2C(=O)Nc2ccc(-n3ccnc3C)cc2)n1 (configuration not stated)	–	0.858
COc1cc(C)ccc1OCc1nc(C(=O)N(C)Cc2ccc(C)o2)co1	0.948	–
CN(C(=O)c1cc(NS(C)(=O)=O)cc2ncn(CCc3ccccc3)c12)C(C1CC1)C1CC1	–	0.001
O=C(NC1CCCN(CCc2ccccc2)C1)c1ccncc1 (configuration not stated)	–	0.804
CN(Cc1nc2ccccc2[nH]1)C(=O)c1cc(NC(=O)C2CCCO2)c2c(c1)nc(C1CCC1)n2C (configuration not stated)	–	0.823
COCCN1CCN(C(=O)CC2C(=O)NCCN2Cc2cccc3ccccc23)CC1 (configuration not stated)	1.04	–
Cc1ccnn1CCC(=O)N1CCOC(CCc2ccccc2)C1 (configuration not stated)	–	0.82
CCOc1ccc2nc(N3CCCN(Cc4ccc(OC)c(OC)c4OC)CC3)nc(C)c2c1	–	0.967
Cc1cccnc1CCNC(=O)Cn1nnnc1CN1C[C@@H](C)O[C@@H](C)C1	–	0.835
COCCn1c(CN2CCC(C)CC2)cnc1S(=O)(=O)C1CCCCCC1	1.11	–
CCOC(=O)C1(Cc2cccc(F)c2)CCN(Cc2cc(C)n[nH]2)CC1	0.835	–
CCN(CC1CCCO1)C(=O)c1cc(NC(=O)COC)cc2ncn(Cc3ccc(F)cc3)c12 (configuration not stated)	–	0.894

Quoted from the listing.
Entry of `COc1ccc2c(c1)SC(c1ccc(F)c(F)c1)CCN2CCCC(F)(F)F` (configuration not stated) under bacterial growth OD600 (polymyxin B 0.75 µg/mL): 0
Entry of `CN(Cc1nc2ccccc2[nH]1)C(=O)c1cc(NC(=O)C2CCCO2)c2c(c1)nc(C1CCC1)n2C` (configuration not stated) under bacterial growth OD600 (polymyxin B 0.75 µg/mL): 0.823
